Results are given in words; binding and its absence hold for the method and conditions named. In cells and extracts the contact can be indirect. A yes stands for co-enrichment or nearness to the bait. Other partners may have been found. Where a sequence is shown, tags or fusion partners need not be part of it.
Target: T1, FLAG-MFSD4A (major facilitator superfamily domain containing 4 A), stably expressed in SUNE1 cells (UniProt Q8N468)
T1 sequence: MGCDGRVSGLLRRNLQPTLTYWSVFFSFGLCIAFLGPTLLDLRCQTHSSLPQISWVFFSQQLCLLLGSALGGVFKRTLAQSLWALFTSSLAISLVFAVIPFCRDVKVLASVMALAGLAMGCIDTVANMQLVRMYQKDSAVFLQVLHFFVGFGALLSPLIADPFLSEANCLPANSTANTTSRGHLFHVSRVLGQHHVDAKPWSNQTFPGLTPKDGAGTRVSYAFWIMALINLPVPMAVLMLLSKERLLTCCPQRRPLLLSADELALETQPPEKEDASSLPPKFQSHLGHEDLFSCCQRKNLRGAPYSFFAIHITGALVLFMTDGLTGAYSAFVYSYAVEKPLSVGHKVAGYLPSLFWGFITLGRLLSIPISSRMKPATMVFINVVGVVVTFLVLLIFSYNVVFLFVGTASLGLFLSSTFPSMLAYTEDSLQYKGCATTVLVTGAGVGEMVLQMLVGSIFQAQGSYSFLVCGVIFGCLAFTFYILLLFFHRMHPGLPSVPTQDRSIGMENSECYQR
Experiment: affinity purification with mass spectrometry; lysate of SUNE1 cells stably transfected with FLAG-MFSD4A; anti-Flag antibodies or IgG overnight at 4 °C, protein A/G magnetic beads, SDS-PAGE, mass spectrometry

By UniProt entry, the sequences of proteins in these tests, tags left out. Residues count along the entry.
UniProt P29317, residues 24-976: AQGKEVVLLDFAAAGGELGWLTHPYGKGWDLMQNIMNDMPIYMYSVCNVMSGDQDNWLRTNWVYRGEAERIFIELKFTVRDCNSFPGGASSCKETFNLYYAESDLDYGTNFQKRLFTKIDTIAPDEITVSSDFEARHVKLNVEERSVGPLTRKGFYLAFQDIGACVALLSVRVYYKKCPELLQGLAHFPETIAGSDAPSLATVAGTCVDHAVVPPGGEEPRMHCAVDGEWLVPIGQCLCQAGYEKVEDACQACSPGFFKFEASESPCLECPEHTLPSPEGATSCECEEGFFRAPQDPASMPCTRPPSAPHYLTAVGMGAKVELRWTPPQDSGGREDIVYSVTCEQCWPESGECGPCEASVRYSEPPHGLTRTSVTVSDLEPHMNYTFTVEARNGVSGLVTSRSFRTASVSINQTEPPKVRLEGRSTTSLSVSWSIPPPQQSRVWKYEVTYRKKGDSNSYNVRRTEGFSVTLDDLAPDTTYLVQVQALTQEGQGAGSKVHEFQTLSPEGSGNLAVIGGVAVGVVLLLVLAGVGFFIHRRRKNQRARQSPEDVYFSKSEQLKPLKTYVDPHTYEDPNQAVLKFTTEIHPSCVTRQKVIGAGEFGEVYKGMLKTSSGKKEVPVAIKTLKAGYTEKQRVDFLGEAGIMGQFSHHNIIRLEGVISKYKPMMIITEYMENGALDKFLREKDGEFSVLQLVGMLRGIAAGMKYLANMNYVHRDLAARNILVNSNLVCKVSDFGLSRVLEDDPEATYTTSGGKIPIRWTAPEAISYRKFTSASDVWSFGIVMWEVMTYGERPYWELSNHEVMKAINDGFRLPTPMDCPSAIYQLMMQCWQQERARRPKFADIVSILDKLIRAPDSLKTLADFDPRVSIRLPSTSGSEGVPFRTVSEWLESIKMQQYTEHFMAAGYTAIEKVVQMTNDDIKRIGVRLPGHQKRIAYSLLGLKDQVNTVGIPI

binding: binds
Substance: EPH receptor A2 (EPHA2), endogenous in SUNE1 cells (from UniProt P29317 24-976)

Reference: publication PMC9001682
